The nature of this experiment: qHTS Assay for Lipid Storage Modulators in Drosophila S3 Cells.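 On cell number change: cells counted by Cell Tracker Red CMTPX staining in the red channel.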 The conditions noted are these: BODIPY lipid droplet fluorescence, 18-24 h; for cell number change: measured here: cell count max response, cells fed with added oleic acid. An outline of the steps:
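Laser-scanning cytometry quantifies lipid droplet accumulation (500–530 nm total intensity; droplet/cell object ratio) in oleic acid-fed (400 uM added) Drosophila S3 cells treated with a concentration series. 20 uM Triacsin C defined 100% inhibition.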

The mark [1] stands for this setting: measured here: cell number channel AC50, cells fed with added oleic acid.
The mark [2] stands for this setting: measured here: lipid fluorescence (Fed channel) AC50, cells fed with added oleic acid.

Results on 36 compounds are retold here after PubChem BioAssay AID2685 (National Center for Advancing Translational Sciences (NCATS), 2010).

The other results are listed elsewhere or left out. Further columns of the screen follow, without active or inactive calls. Compounds called inactive in the main read-out are mostly missing here. Words in brackets tell the shape of the fitted curve; partial curves, single points and poor fits give uncertain potencies.

Turning to `CCOc1ccc(NC(=O)C2CC(=O)NC(N3CCc4ccccc43)=N2)cc1` (stereo not given), the cell number change worked out at 18.7%.

For the compound `O=C(CNC(=O)CNC(=O)c1ccc(Cl)cc1Cl)NCc1cccc(Cl)c1`, the cell number change was 16.2%.

Usually AC50 stands for the midpoint of the concentration-response curve, whichever way the signal moves. Turning to `O=C(CCCN1C(=O)c2ccccc2C1=O)OC1CSCC1NC(=O)c1ccccc1` (stereo not given), the cell number change was -28.5%. Under setting [1], the AC50 was 0.116 µM [falling, full curve, poor fit]. In addition, under setting [2], the AC50 was 7.31 µM [falling, partial curve, poor fit].

For the compound `Cc1ccc(S(=O)(=O)NC(=O)NCc2ccccc2)cc1`, the cell number change was -38.3%. Moreover, the AC50 under setting [1] is 29.1 µM [falling, single point]. Moreover, the AC50 under setting [2] is 29.1 µM [falling, single point].

As to `O=C(O)C1CCC(c2ccc(-c3ccccc3)cc2)CC1` (stereo not given), the cell number change was -1.57%. Further, under setting [2], the AC50 is 29.1 µM [rising, single point].

Turning to `Cc1ccc(-c2nc3ccccc3c(=O)n2NC(=O)c2cccs2)cc1`, the cell number change came to 4.4%.

For the compound `CC(C)(C=O)Cc1cc(C(C)(C)C)c(O)c(C(C)(C)C)c1`, the cell number change was -34.5%. Moreover, under setting [1], the half-maximal activity concentration (AC50) is 29.1 µM [falling, single point]. In addition, the AC50 under setting [2] is 29.1 µM [falling, single point].

With `O=C(CSc1n[nH]c(-c2ccccn2)n1)Nc1ccccc1F`, the cell number change is -35.5%. Moreover, the AC50 under setting [1] is 11.6 µM [falling, single point].

In the case of `O=C(NCc1cccc(Cl)c1)c1ccc(CS(=O)Cc2ccccc2Cl)o1` (stereo not given), the AC50 under setting [1] is 0.0326 µM [rising, full curve] and the AC50 under setting [2] was 5.17 µM [rising, partial curve].

For the compound `Nn1cc(-c2ccccc2)nc1SCC(=O)Nc1ccc(S(N)(=O)=O)cc1`, the cell number change came to 26%. Further, under setting [2], the AC50 was 3.26 µM [falling, single point].

With `CC(C)C(NS(=O)(=O)c1cccc2nsnc12)C(=O)N1CCCCC1` (stereo not given), the cell number change is -39.9%. Under setting [1], the AC50 is 29.1 µM [falling, single point]. Besides, under setting [2], the AC50 was 6.51 µM [falling, single point].

As to `Cc1cc(C)c2c(N)c(C(=O)Nc3ccccc3Br)sc2n1`, the cell number change is -7.01%. For the same compound, the AC50 under setting [2] was 18.4 µM [falling, partial curve].

Turning to `C=CCn1c(SCC(=O)N2CCc3ccccc3C2)nnc1-c1ccncc1`, the cell number change was found to be 27.3%. Also, the AC50 under setting [2] was 3.66 µM [rising, single point].

`CC(=O)Nc1sc(C)c(C)c1C(=O)OCC(=O)NCc1ccc(F)cc1`: the cell number change was determined as 7.52%. Moreover, under setting [2], the AC50 was 29.1 µM [rising, single point].

Consider `COc1ccc(OCCNC(=O)c2ccc(C)cc2)cc1`, for which the cell number change is -9.72%.

With `CC(=O)NC12CC3CC(C1)CC(C(=O)OCC(=O)Nc1c(F)cccc1F)(C3)C2`, the cell number change is -21.4%. In addition, the AC50 under setting [2] was 0.461 µM [falling, partial curve].

For the compound `O=C(Nc1ccc(NC(=S)NC(=O)c2ccco2)cc1)c1ccccc1`, the cell number change is 57.1%. The concentration at half-maximal activity (AC50) under setting [1] is 25.9 µM [rising, partial curve]. Under setting [2], the AC50 is 18.4 µM [falling, single point].

Regarding `Cc1cc(C2=CC(C)(c3cc(C)oc3C)Nc3nc(C(F)(F)F)nn32)c(C)o1` (stereo not given), the cell number change is -59.7%. For the same compound, the AC50 under setting [1] is 13 µM [falling, partial curve, poor fit]. For the same compound, under setting [2], the AC50 was 29.1 µM [falling, single point].

In the case of `NC(=O)CC(NC(=O)Cc1ccc(Br)cc1)c1ccc(N2CCC(Cc3ccccc3)CC2)c([N+](=O)[O-])c1` (stereo not given), the cell number change was -22.6%. Moreover, under setting [2], the AC50 is 18.4 µM [falling, single point].

Regarding `COc1ccc(CCN(C)C(=O)CNC(=O)c2ccc3c(c2)OCO3)cc1OC`, the cell number change was 1.62%.

Consider `Cc1cc(C)cc(NC(=O)CSc2nccn2Cc2ccco2)c1`, for which the cell number change was 35.2%. In addition, the AC50 under setting [1] is 4.11 µM [rising, full curve]. Under setting [2], the AC50 was 6.51 µM [rising, full curve, poor fit].

`CC(SCc1cn2cc(Cl)ccc2n1)C(=O)O` (stereo not given): the cell number change was -14.6%.

As for `COc1ccc(Cl)cc1NC(=O)COC(=O)c1ccc(Cl)nc1`, the cell number change was -5.1%. Moreover, the concentration at half-maximal activity (AC50) under setting [2] was 6.51 µM [falling, single point].

As for `Cc1ccc(C)c(N2CCN(C(=O)c3ccc(CSc4nc5ccncc5[nH]4)cc3)CC2)c1`, the cell number change is -33.9%. In addition, under setting [1], the AC50 is 25.9 µM [falling, single point]. Besides, under setting [2], the AC50 was 2.31 µM [rising, full curve].

Consider `CSc1ccccc1OCc1cc(C(=O)N2CCN(c3ncccn3)CC2)no1`, for which the cell number change is -11.9%. Further, the AC50 under setting [2] was 0.116 µM [rising, full curve, poor fit].

As to `COc1ccc(N2C(=O)CC(c3ccc(OC(C)C)cc3)C2=O)cc1` (stereo not given), the cell number change turned out to be 16.8%. In addition, the concentration at half-maximal activity (AC50) under setting [2] was 29.1 µM [rising, single point].

For the compound `COc1ccc(/C=C2\CN(Cc3ccccc3)C/C(=C\c3ccc(OC)c(O)c3)C2=O)cc1O`, the cell number change is 7.66%.

In the case of `Cc1ccc(CNC(=O)C2CCC(CNc3c(N4CCC(C)CC4)c(=O)c3=O)CC2)cc1` (stereo not given), the cell number change turned out to be 6.52%. Moreover, the AC50 under setting [2] was 0.206 µM [falling, full curve].

On to `CCCn1c(N)c(C(=O)CSc2nnc(C)n2Cc2ccccc2)c(=O)n(C)c1=O`, for which the cell number change worked out at 7.81%. Also, under setting [2], the AC50 was 0.00461 µM [rising, full curve, poor fit].

Take `O=C(OCC(=O)N1CCN(C(=O)c2ccco2)CC1)c1ccccc1OCc1ccccc1`: the cell number change was found to be 3.94%. For the same compound, the AC50 under setting [2] was 1.84 µM [rising, partial curve, poor fit].

In the case of `CN(C)c1nc(OCCNC(=O)Nc2ccccc2)nc(N2CCCCC2)n1`, the cell number change is -23.8%. In addition, under setting [2], the AC50 was 16.4 µM [falling, partial curve].

Turning to `Cn1c(CN2CCCC2)nc2cc(NC(=O)Nc3ccccc3)ccc21`, the cell number change came out at 8.86%.

For the compound `O=C(/C=C/c1ccccc1)N(Cc1ccc(Cl)cc1)C1CCS(=O)(=O)C1` (stereo not given), the cell number change came out at 32.1%. Also, under setting [1], the AC50 was 10.3 µM [rising, partial curve, poor fit]. The AC50 under setting [2] was 10.3 µM [rising, partial curve].

With `O=C(Cc1cccc2ccccc12)OCn1nnc2ccccc2c1=O`, the cell number change came to 0.858%. In addition, the AC50 under setting [1] was 1.3 µM [falling, partial curve]. Also, the AC50 under setting [2] is 5.8 µM [falling, single point].

Turning to `COc1ccc(C(C)=O)cc1COC(=O)CNC(=O)c1ccc(F)cc1`, the cell number change was 2.52%. The AC50 under setting [1] was 0.206 µM [falling, full curve, poor fit].

As for `CCOC(=O)CCc1c(C(=O)OCC)[nH]c(CC)c1C(=O)OCc1ccccc1`, the cell number change was found to be 37.1%. Moreover, the concentration at half-maximal activity (AC50) under setting [1] was 0.326 µM [rising, full curve]. In addition, under setting [2], the AC50 is 0.517 µM [rising, full curve].
